Measurements as given in PubChem BioAssay AID248 (DTP/NCI, 2004).
The list shows only some results of the screen, not a fair sample: it gathers tests that were run many times, whatever their T/C, doses with no T/C, and many T/C values between a quarter and a half above the control. Other doses and runs of a compound stand elsewhere. T/C: endpoint of the treated group in % of that of the vehicle group. Some entries give survivors of the animals treated and no T/C: the source holds a T/C of zero for them, seemingly a mark for toxic or unscored doses. Some survivor counts are full or nearly so, which does not show that the dose was tolerated: the source hardly ever lists a survival T/C far under the control, and the zero likely stands for such cases as well. Survivors were counted at the toxicity check, usually on the fifth day, unless a day is given; later deaths do not show. Schedules are NCI's codes, read here as Q, the interval in days (D) or hours (H), X, the number of doses. Some entries were tested several times; the results are listed from low to high. Some schedule codes hold Z or #, which are not explained here. For survival time, this PubChem deposit counts one and a half times the control or more as active, and values a quarter to a half above the control carry no call in these data; other NCI protocols may use other cut-offs. Some T/C values carry the count of animals alive at the toxicity check (mostly the fifth day); where none is given, no animal had died by that day.

System: L1210 leukemia ip in BDF1 mice, survival T/C
Experiment: NCI In Vivo Anticancer Drug Screen. Data for tumor model L1210 Leukemia (intraperitoneal) in B6D2F1 (BDF1) mice
Conditions: T/C endpoint: mean survival time, higher T/C = longer survival
[1] = dose: 400.0 mg/kg/injection, schedule: Q01DX009 (ip), vehicle: saline with Tween-80
[2] = dose: 400.0 mg/kg/injection, schedule: Q01DX001 (ip), vehicle: saline
[3] = dose: 400.0 mg/kg/injection, schedule: Q04DX003 (ip), vehicle: saline with Tween-80
[4] = dose: 200.0 mg/kg/injection, schedule: Q01DX009 (ip), vehicle: saline
[5] = dose: 200.0 mg/kg/injection, schedule: Q01DX Z (ip), vehicle: methylcellulose (MC)
[6] = dose: 400.0 mg/kg/injection, schedule: Q04DX002 (ip), vehicle: saline with Tween-80

For CCN(CC)CC(O)CNc1cc(C)nc(/N=C(\N)Nc2ccc(Cl)c(Cl)c2)n1 (stereo not given), the survivor count (dose: 100.0 mg/kg/injection, schedule: Q01DX009 (ip), vehicle: saline with Tween-80) was 2 of 6, the survivor count (dose: 200.0 mg/kg/injection, schedule: Q01DX009 (ip), vehicle: saline with Tween-80) was 0 of 6 and the survivor count [1] was 0 of 6.
With C(=C/[PH+](c1ccccc1)c1ccccc1)/[PH+](c1ccccc1)c1ccccc1.C(=C/[PH+](c1ccccc1)c1ccccc1)/[PH+](c1ccccc1)c1ccccc1.[O-][Cl+3]([O-])([O-])O.[Rh] the survivor count (dose: 200.0 mg/kg/injection, schedule: Q01DX001 (ip), vehicle: saline with Tween-80) was 3 of 3.
For O=C(COc1ccc(Cl)cc1)Nc1ccc(Cl)cc1, the survivor count (dose: 200.0 mg/kg/injection, schedule: Q01DX009 (ip), vehicle: Klucel (hydroxypropylcellulose) (HPC)) was 5 of 6.
With COc1cc2c(cc1OC)C(NC(C)C)CCCC2 (stereo not given) the survivor count [2] was 0 of 4.
For C=C1C(O)CC2CC1C2(C)C (stereo not given), the survivor count [3] was 0 of 6.
With NC(CS)=NCC1C2CC3CC(C2)CC1C3 (stereo not given) the survivor count (dose: 100.0 mg/kg/injection, schedule: Q04DX002 (ip), vehicle: Klucel (hydroxypropylcellulose) (HPC)) was 0 of 3, the survivor count (dose: 200.0 mg/kg/injection, schedule: Q04DX002 (ip), vehicle: Klucel (hydroxypropylcellulose) (HPC)) was 0 of 3 and the survivor count (dose: 400.0 mg/kg/injection, schedule: Q04DX002 (ip), vehicle: Klucel (hydroxypropylcellulose) (HPC)) was 0 of 3.
For O=C(CCCC(=O)N/N=C/c1cc(Br)ccc1O)N/N=C\c1cc(Br)ccc1O, the survivor count [4] was 6 of 6.
CC(Cl)CNC(=O)N(CC(C)Cl)N=O (stereo not given) was tested, and the survivor count (dose: 1500.0 mg/kg/injection, schedule: Q01DX001 (ip), vehicle: carboxymethylcellulose (CMC)) was 1 of 6 and the survivor count (dose: 2000.0 mg/kg/injection, schedule: Q01DX001 (ip), vehicle: carboxymethylcellulose (CMC)) was 2 of 6.
For CC(=O)Nc1ccc(/C=N/Nc2c([N+](=O)[O-])cc(C(F)(F)F)cc2[N+](=O)[O-])cc1, the survivor count [1] was 3 of 6.
With O=C(NCCCNC(=O)Nc1ccc(C2=NCCCN2)cc1)Nc1ccc(C2=NCCCN2)cc1 the survivor count (dose: 40.0 mg/kg/injection, schedule: Q01DX015 (ip), vehicle: methylcellulose (MC)) was 1 of 6 and the survivor count (dose: 80.0 mg/kg/injection, schedule: Q01DX015 (ip), vehicle: methylcellulose (MC)) was 0 of 6.
For COc1nc(=S)nc(OC)[nH]1, the survivor count [5] was 2 of 6.
For CC(=O)OCC[N+](C)(C)CCCCC[N+](C)(C)CCOC(C)=O, the survivor count (dose: 400.0 mg/kg/injection, schedule: Q01DX009 (ip), vehicle: saline) was 1 of 6.
For O=[N+]([O-])c1ccc(Cl)c2c([N+](=O)[O-])cccc12, the survivor count [3] was 6 of 6.
For O=C(O)CC1(C(=O)O)CC2(Cl)C(Cl)=C(Cl)C1(Cl)C2(Cl)Cl (stereo not given), the survivor count [3] was 6 of 6.
With CCCCCCCCCCCC(=O)NN the survivor count (dose: 150.0 mg/kg/injection, schedule: Q01DX009 (ip), vehicle: carboxymethylcellulose (CMC)) was 1 of 6, the survivor count (dose: 300.0 mg/kg/injection, schedule: Q01DX009 (ip), vehicle: carboxymethylcellulose (CMC)) was 0 of 6 and the survivor count (dose: 600.0 mg/kg/injection, schedule: Q01DX009 (ip), vehicle: carboxymethylcellulose (CMC)) was 0 of 6.
For CC(C)CNC(=O)Nc1ccccc1, the survivor count (dose: 300.0 mg/kg/injection, schedule: Q01DX001 (ip), vehicle: saline) was 3 of 6.
With O=C(O)CCCCCNCc1cc(=O)[nH]c(=O)[nH]1 the survivor count (dose: 400.0 mg/kg/injection, schedule: Q04DX003 (ip), vehicle: saline) was 0 of 4.
With CCOc1ccc(Cl)cc1 the survivor count [1] was 6 of 6.
Cc1c(Cl)cccc1NC(=O)Nc1ccccc1 was tested, and the survivor count (dose: 100.0 mg/kg/injection, schedule: Q01DX009 (ip), vehicle: DMSO) was 6 of 6, the survivor count (dose: 200.0 mg/kg/injection, schedule: Q01DX009 (ip), vehicle: DMSO) was 6 of 6 and the survivor count (dose: 400.0 mg/kg/injection, schedule: Q01DX009 (ip), vehicle: DMSO) was 6 of 6.
In the case of Nc1nc(SCc2ccccc2)cc(C(=O)O)n1, the survivor count (dose: 100.0 mg/kg/injection, schedule: Q01DX Z (ip), vehicle: methylcellulose (MC)) is reported as 6 of 6 and the survivor count [5] is reported as 0 of 6.
c1ccc2c(c1)ccc1c[n+]3c(ccc4ccccc43)cc12 was tested, and the survivor count (dose: 100.0 mg/kg/injection, schedule: Q01DX001 (ip), vehicle: carboxymethylcellulose (CMC)) was 2 of 6, the survivor count (dose: 200.0 mg/kg/injection, schedule: Q01DX001 (ip), vehicle: carboxymethylcellulose (CMC)) was 0 of 6 and the survivor count (dose: 400.0 mg/kg/injection, schedule: Q01DX001 (ip), vehicle: carboxymethylcellulose (CMC)) was 0 of 6.
CC(C)(C)C(=O)c1nn[nH]n1 was tested, and the survivor count [4] was 2 of 6 and the survivor count [2] was 1 of 6.
In the case of Nc1cc(C(=O)Nc2ccc(C3=NCCN3)cc2)ccc1C(=O)Nc1ccc(C2=NCCN2)cc1, the T/C (dose: 1.1 mg/kg/injection, schedule: Q01DX Z (ip), vehicle: saline) is reported as 125 [5 of 6 alive] and 126 % of control, the T/C (dose: 1.7 mg/kg/injection, schedule: Q01DX Z (ip), vehicle: saline) is reported as 131 and 145 % of control and the T/C (dose: 2.5 mg/kg/injection, schedule: Q01DX Z (ip), vehicle: methylcellulose (MC)) is reported as 130 % of control. For the same compound, the T/C (dose: 2.6 mg/kg/injection, schedule: Q01DX Z (ip), vehicle: saline) was 137 % of control, the T/C (dose: 4.0 mg/kg/injection, schedule: Q01DX Z (ip), vehicle: methylcellulose (MC)) was 127 % of control and the T/C (dose: 4.0 mg/kg/injection, schedule: Q01DX Z (ip), vehicle: saline) was 148 % of control. For the same compound, the T/C (dose: 6.0 mg/kg/injection, schedule: Q01DX Z (ip), vehicle: methylcellulose (MC)) was 130 % of control, the T/C (dose: 14.0 mg/kg/injection, schedule: Q01DX Z (ip), vehicle: methylcellulose (MC)) was 148 % of control [5 of 6 alive] and the T/C (dose: 22.5 mg/kg/injection, schedule: Q01DX015 (ip), vehicle: carboxymethylcellulose (CMC)) was 126 % of control. The survivor count (dose: 31.0 mg/kg/injection, schedule: Q01DX Z (ip), vehicle: methylcellulose (MC)) was 6 of 6, the survivor count (dose: 47.0 mg/kg/injection, schedule: Q01DX Z (ip), vehicle: methylcellulose (MC)) was 5 of 6 and the survivor count (dose: 67.5 mg/kg/injection, schedule: Q01DX Z (ip), vehicle: carboxymethylcellulose (CMC)) was 3 of 6.
On1ccccc1=S was tested, and the survivor count (dose: 100.0 mg/kg/injection, schedule: Q04DX002 (ip), vehicle: saline with Tween-80) was 0 of 3, the survivor count (dose: 200.0 mg/kg/injection, schedule: Q04DX002 (ip), vehicle: saline with Tween-80) was 0 of 3 and the survivor count [6] was 0 of 3.
In the case of CC(C)=CCCC(C)CCOC(N)=O (stereo not given), the survivor count [6] is reported as 0 of 3.
In the case of CC(C)C(CN)(CCCCN1CCCCC1)c1cccc2ccccc12 (stereo not given), the survivor count (dose: 200.0 mg/kg/injection, schedule: Q04DX003 (ip), vehicle: saline with Tween-80) is reported as 1 of 6 and the survivor count [3] is reported as 0 of 6.
For CCCCCCN, the survivor count (dose: 100.0 mg/kg/injection, schedule: Q01DX009 (ip), vehicle: saline) was 1 of 3, the T/C (dose: 100.0 mg/kg/injection, schedule: Q04DX002 (ip), vehicle: saline, evaluated on day 20) was 97 % of control and the T/C (dose: 100.0 mg/kg/injection, schedule: Q04DX002 (ip), vehicle: saline, evaluated on day 30) was 103, 105, 111 % of control. The survivor count (dose: 200.0 mg/kg/injection, schedule: Q04DX002 (ip), vehicle: saline) was 0 of 3 and 1 of 6 and the survivor count (dose: 400.0 mg/kg/injection, schedule: Q04DX002 (ip), vehicle: saline) was 0 of 3 and 0 of 6.
For COC1C(NC(=O)N(CCCl)N=O)C(OC(C)=O)OC(COC(C)=O)C1OC(C)=O (stereo not given), the T/C (dose: 1.8 mg/kg/injection, schedule: Q01DX001 (ip), vehicle: saline with Tween-80) was 135 % of control, the T/C (dose: 2.6 mg/kg/injection, schedule: Q01DX001 (ip), vehicle: saline with Tween-80) was 141 % of control and the T/C (dose: 4.0 mg/kg/injection, schedule: Q01DX001 (ip), vehicle: saline with Tween-80) was 137 % of control. For the same compound, the survivor count (dose: 30.0 mg/kg/injection, schedule: Q01DX001 (ip), vehicle: saline with Tween-80) was 9 of 10, the survivor count (dose: 45.0 mg/kg/injection, schedule: Q01DX001 (ip), vehicle: saline with Tween-80) was 5 of 10 and 6 of 10 and the survivor count (dose: 67.0 mg/kg/injection, schedule: Q01DX001 (ip), vehicle: saline with Tween-80) was 7 of 10 and 10 of 10.
